Measured values reported in the supplement of paper PMC11006884.
The entries are a selection whose mix differs from that of the whole data set.

Chains of the proteins cited; added tags and fusions are not shown. Lines headed by an entry give the natural chain unless they say otherwise; changes in a name come on top.
UniProt P62937, whole entry, looked up: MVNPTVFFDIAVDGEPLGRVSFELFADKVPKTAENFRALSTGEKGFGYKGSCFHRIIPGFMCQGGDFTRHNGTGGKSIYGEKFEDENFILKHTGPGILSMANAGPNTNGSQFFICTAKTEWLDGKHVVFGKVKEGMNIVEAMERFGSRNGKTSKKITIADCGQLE
UniProt Q01167: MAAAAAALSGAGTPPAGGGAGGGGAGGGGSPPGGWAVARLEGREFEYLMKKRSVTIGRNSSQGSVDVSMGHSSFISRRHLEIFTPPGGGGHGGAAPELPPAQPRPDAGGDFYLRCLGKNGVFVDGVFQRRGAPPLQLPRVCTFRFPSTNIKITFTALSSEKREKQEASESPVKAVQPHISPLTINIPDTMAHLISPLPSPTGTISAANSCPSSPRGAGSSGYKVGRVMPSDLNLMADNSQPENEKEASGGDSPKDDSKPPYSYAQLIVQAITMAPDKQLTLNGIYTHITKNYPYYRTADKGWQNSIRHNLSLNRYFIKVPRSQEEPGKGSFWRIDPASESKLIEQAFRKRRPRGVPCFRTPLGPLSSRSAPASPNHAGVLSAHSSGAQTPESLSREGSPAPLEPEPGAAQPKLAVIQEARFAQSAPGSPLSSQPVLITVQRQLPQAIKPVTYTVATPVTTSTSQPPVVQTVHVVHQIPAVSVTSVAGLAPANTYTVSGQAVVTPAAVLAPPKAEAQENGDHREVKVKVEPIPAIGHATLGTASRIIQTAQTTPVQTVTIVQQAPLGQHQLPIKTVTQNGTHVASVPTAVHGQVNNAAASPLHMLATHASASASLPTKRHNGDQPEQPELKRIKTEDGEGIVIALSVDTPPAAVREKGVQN
UniProt P98170, whole entry, looked up: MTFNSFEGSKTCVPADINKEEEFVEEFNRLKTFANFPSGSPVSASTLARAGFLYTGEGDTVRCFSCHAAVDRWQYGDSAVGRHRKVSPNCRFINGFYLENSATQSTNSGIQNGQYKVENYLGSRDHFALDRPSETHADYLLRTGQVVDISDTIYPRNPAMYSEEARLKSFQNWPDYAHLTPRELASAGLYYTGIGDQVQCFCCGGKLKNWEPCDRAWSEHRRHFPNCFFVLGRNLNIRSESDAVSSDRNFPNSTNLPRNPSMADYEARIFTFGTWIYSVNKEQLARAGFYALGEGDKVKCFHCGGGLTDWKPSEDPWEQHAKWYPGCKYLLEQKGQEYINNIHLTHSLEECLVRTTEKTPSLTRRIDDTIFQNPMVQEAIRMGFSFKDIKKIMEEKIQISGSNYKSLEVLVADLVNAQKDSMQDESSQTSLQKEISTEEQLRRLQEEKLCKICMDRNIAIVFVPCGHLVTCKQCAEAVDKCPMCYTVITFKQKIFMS
UniProt P62633: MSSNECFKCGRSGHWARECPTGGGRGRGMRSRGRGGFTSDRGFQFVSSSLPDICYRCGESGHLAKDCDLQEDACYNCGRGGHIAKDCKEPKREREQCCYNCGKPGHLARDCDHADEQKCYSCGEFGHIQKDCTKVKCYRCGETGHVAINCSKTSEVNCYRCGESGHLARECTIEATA
UniProt P63241: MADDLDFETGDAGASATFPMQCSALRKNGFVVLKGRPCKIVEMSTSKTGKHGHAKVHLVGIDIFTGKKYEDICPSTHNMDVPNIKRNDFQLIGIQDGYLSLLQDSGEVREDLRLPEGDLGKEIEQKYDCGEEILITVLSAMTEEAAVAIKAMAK
UniProt Q01082, whole entry, looked up: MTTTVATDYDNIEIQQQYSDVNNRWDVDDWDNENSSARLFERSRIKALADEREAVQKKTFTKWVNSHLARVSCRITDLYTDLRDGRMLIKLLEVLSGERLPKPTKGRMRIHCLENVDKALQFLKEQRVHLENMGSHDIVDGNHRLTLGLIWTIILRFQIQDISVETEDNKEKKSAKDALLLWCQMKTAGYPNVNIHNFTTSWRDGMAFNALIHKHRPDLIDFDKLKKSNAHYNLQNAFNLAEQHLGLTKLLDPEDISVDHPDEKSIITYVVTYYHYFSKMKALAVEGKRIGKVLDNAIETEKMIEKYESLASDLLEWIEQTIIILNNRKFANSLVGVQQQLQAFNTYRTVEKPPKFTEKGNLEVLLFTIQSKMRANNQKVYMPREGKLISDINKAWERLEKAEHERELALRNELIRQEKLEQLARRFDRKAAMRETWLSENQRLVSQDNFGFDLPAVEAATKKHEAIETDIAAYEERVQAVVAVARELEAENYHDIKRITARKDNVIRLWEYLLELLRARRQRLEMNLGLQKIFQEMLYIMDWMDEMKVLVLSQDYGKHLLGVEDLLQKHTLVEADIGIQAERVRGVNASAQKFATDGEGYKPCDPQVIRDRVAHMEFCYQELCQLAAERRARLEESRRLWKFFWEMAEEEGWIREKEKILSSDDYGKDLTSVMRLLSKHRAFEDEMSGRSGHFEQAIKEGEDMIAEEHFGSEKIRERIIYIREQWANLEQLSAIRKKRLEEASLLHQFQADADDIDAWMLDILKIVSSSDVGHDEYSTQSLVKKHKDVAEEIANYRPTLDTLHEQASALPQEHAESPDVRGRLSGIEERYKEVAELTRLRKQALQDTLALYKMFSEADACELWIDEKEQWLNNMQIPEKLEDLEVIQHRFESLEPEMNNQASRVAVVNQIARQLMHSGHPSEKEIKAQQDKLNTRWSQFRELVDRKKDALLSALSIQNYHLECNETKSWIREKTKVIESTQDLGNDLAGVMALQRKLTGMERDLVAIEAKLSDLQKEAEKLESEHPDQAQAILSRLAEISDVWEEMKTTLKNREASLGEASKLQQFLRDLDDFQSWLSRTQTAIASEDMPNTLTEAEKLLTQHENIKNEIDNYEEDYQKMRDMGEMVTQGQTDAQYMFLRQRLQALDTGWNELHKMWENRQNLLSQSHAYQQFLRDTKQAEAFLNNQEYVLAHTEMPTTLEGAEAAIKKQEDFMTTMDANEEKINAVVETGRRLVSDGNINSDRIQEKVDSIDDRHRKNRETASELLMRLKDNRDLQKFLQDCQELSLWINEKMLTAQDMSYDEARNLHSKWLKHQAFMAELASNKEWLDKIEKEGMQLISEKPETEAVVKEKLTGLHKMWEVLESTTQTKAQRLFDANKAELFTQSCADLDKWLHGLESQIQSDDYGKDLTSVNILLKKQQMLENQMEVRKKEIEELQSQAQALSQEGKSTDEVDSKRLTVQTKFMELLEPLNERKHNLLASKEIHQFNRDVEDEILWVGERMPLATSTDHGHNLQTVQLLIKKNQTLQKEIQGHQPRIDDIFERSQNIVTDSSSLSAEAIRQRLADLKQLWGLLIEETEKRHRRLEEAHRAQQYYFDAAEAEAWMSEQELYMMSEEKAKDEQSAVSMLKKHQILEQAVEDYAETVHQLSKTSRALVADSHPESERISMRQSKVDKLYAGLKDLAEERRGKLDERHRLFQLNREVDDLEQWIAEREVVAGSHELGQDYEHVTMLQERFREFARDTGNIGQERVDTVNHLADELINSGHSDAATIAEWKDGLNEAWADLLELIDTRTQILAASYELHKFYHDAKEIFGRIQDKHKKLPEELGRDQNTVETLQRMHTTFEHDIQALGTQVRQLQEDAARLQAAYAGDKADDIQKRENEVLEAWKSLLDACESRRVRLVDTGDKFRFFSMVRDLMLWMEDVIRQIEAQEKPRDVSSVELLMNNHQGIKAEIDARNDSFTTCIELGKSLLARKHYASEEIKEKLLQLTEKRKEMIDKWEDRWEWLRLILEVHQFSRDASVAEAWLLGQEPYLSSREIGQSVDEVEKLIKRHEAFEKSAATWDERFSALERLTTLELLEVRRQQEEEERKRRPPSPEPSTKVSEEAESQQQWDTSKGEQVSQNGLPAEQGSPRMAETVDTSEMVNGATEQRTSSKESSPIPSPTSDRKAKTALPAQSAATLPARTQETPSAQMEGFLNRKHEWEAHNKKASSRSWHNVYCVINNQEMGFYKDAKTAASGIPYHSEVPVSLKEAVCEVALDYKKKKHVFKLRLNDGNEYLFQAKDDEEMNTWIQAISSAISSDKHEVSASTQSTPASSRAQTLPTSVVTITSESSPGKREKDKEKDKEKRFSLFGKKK
UniProt Q00610: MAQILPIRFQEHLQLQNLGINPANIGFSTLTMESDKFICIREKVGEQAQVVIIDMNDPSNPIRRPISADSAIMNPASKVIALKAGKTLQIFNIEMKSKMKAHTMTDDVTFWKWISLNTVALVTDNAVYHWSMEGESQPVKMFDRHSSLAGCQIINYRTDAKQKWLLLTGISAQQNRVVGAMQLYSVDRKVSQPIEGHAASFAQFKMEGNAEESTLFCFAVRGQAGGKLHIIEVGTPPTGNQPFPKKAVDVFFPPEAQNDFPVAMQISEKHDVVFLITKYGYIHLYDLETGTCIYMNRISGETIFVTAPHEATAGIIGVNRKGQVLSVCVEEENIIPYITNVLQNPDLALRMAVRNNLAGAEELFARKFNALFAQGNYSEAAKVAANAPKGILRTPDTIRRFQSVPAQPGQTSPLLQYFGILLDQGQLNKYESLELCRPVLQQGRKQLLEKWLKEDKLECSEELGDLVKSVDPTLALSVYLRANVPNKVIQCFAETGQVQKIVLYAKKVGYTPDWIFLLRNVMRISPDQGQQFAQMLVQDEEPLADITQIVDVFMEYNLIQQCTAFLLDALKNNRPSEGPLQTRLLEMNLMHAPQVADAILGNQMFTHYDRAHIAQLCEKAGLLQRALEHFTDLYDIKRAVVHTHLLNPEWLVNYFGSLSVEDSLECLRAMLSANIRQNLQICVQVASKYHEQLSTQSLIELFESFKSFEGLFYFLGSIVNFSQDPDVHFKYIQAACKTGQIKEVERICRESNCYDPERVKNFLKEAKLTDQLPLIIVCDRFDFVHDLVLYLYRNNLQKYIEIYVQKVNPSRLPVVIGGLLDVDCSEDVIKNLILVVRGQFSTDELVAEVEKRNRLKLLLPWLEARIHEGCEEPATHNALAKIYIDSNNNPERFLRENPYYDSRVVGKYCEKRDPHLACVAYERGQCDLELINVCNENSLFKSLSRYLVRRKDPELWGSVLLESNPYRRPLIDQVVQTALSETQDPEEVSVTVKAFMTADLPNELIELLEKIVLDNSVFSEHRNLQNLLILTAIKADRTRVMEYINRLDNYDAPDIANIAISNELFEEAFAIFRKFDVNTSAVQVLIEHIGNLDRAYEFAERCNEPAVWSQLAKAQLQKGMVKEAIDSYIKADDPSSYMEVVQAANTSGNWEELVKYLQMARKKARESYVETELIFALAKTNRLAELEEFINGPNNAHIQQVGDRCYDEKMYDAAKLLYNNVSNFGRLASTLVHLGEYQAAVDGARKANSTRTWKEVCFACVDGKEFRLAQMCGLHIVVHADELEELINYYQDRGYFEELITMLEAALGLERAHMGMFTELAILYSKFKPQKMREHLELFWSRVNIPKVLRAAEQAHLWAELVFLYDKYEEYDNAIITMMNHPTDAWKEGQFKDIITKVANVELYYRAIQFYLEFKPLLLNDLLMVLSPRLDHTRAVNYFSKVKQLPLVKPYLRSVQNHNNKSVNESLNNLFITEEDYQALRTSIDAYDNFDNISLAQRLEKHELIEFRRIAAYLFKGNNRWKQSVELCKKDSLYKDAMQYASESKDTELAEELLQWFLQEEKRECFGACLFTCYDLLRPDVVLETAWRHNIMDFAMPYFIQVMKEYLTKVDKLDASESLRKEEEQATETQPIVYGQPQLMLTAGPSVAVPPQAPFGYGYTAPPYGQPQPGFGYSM
UniProt P62993, whole entry, looked up: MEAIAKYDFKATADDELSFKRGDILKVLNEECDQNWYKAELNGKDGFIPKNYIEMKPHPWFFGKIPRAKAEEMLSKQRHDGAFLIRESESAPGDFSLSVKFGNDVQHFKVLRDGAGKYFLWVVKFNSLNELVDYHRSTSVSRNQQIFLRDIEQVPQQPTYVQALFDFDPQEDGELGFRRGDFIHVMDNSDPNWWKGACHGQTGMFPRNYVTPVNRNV
UniProt P86791: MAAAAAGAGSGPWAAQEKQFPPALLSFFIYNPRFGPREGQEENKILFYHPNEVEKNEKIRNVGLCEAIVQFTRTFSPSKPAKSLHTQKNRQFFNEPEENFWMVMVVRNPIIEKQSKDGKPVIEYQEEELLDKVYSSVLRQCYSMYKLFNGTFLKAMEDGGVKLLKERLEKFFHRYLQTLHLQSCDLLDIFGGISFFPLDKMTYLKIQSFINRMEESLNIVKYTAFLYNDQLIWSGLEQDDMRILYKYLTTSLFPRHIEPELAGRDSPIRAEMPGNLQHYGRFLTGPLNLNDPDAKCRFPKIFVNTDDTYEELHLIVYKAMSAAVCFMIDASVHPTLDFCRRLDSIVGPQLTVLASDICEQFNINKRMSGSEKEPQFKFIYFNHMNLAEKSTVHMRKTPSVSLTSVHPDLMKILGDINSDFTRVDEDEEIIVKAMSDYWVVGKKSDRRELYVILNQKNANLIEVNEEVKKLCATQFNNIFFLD

The targets below were run with COC(=O)C#Cc1ccccc1 [methyl 3-phenylpropiolate] (assay: log2 ratio of iodoacetamide-alkyne labeling of the cysteine site, DMSO over compound (competition); higher = stronger covalent engagement of the cysteine by the compound, active = 1 or more). Details: 500 µM; treatment time 1 h; system: HEK293T cell lysate.
Summary of the method: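 The log2 competition ratio per cysteine is defined as mean reporter intensity in control channels over mean reporter intensity in compound channels. Lysate from HEK293T cells (2 mg/mL) received electrophile (500 µM) or vehicle for 1 h at ambient temperature, followed by iodoacetamide alkyne for 1 h. Samples were clicked to sCIP-TMT reagents, pooled, trypsin-digested overnight at 37 °C, streptavidin-enriched, acid-eluted and run on Orbitrap Eclipse LC-MS/MS with FAIMS, with quantification in FragPipe. Three replicates with duplicate channels were used, and any cysteine quantified in only one replicate was excluded.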

log2 ratio of iodoacetamide-alkyne labeling, inactive:
PPIA C52 (UniProt P62937) 0.0298
UniProt P62263_C54 0.0532
ACTG1 C17 (UniProt P63261) 0.00246
MRPS34 C93 (UniProt P82930) 0.136
UniProt P62280_C131 0.35
H3F3A C111 (UniProt P84243) -0.0761
SORD C301 (UniProt Q00796) 0.296
FOXK2 C210 (UniProt Q01167) -0.0804
AMPD2 C310 (UniProt Q01433) 0.446
XIAP C202 (UniProt P98170) 0.117
CNBP C158 (UniProt P62633) 0.138
UniProt P63241_C129 -0.068
FOXK1 C439 (UniProt P85037) 0.622
PPIA C62 (UniProt P62937) 0.124
UniProt P62917_C114 0.25
UniProt P68431_C111 0.142
SPTBN1 C624 (UniProt Q01082) -0.122
GTF2I C215 (UniProt P78347) 0.217
EWSR1 C529 (UniProt Q01844) -0.0982
CLTC C1205 (UniProt Q00610) 0.0154
RPS21 C17 (UniProt P63220) 0.625
EIF4G2 C255 (UniProt P78344) 0.391
GRB2 C32 (UniProt P62993) 0.167
UniProt P62913_C25 0.573
UniProt P68363_C295 0.466
CLTC C753 (UniProt Q00610) 0.211
PPP2CA C269 (UniProt P67775) -0.168
UniProt P62910_C96 0.338
UniProt P78527_C931 -0.141
PURA C272 (UniProt Q00577) 0.234
CNBP C6 (UniProt P62633) 0.0447
UniProt P63244_C286 0.382
HMGCS1 C86 (UniProt Q01581) 0.0742
CLTC C934 (UniProt Q00610) 0.162
P86790_C358 (UniProt P86791+P86790) 0.213
UniProt P78527_C1432 0.288
UniProt P62851_C59 0.00851

7 successive entries already listed:
log2 ratio of iodoacetamide-alkyne labeling, inactive:
H3F3A C111 (UniProt P84243) -0.0761
SORD C301 (UniProt Q00796) 0.296
FOXK2 C210 (UniProt Q01167) -0.0804
AMPD2 C310 (UniProt Q01433) 0.446
XIAP C202 (UniProt P98170) 0.117
CNBP C158 (UniProt P62633) 0.138
UniProt P63241_C129 -0.068
